Experimental findings from paper PMC6529632, “Robust Stoichiometry of FliW-CsrA Governs Flagellin Homeostasis and Cytoplasmic Organization in Bacillus subtilis” (mBio, 2019) are described below.

Series [1] has as its system CsrA-Hetero (CsrA-WT-His6/CsrA-N55D-strep). In words: EMSA. As to conditions: FliW added, shift pattern resembles wild type, inhibition; 40 mM Tris-HCl pH 7.5, 4 mM MgCl2, 100 mM KCl, 20 ng/ul yeast RNA, 20 mM DTT, 10% glycerol, 4 U RNase inhibitor, 20 pM RNA, 37 C 30 min (FliW added for a further 5 min); recombinant protein; protein details: His6 (WT chain), Strep-tag (N55D chain); label: internal 32P ([alpha-32P]ATP); probe letters rebuilt from the primers and the genome.

The target of a further series is T1, CsrA-WT-His6 (UniProt P33911).
T1 sequence (looked up): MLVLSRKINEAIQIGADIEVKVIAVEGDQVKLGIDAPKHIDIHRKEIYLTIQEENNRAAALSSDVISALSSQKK
The experiment in a line: EMSA. As to conditions: FliW added, CsrA-bound RNA reduced at roughly equimolar FliW; 40 mM Tris-HCl pH 7.5, 4 mM MgCl2, 100 mM KCl, 20 ng/ul yeast RNA, 20 mM DTT, 10% glycerol, 4 U RNase inhibitor, 20 pM RNA, 37 C 30 min (FliW added for a further 5 min); recombinant protein; residues 1-74; protein details: His6; label: internal 32P ([alpha-32P]ATP); probe letters rebuilt from the primers and the genome. A general note: A gel shift assay detects complexes by their altered migration in electrophoresis.

For at least one entry, the source does not settle the construct or the ends of the probe. The comparison behind a weaker result is the experiment's own reference, which may not be listed here. For some assays here: Tags and fusion partners may be left off the protein sequences shown.

For the sequence “GGUAGCCGGGAGGAGGCGCAAAAGACUCAGCCAGUUACAAAAUAAGGGCACAAGGACGUGCCUUAACAACAUAUUCAGGGAGGAACAAAACAAUGAGAAUU [hag 5' UTR transcript +1 to +100]”, the binding result (in series [1]; with CsrA-WT-His6) was “binds more weakly” each time.
